Data published in paper PMC7413540.
No constants are given. Whether binding was seen depends on the method and setting. Binding seen in cells or lysates may run through a third protein. Some results given as binding are weak or reduced against the parent protein; the word gives no strength.

The chains behind the UniProt entries cited, without tags or fusion partners.
UniProt P38398: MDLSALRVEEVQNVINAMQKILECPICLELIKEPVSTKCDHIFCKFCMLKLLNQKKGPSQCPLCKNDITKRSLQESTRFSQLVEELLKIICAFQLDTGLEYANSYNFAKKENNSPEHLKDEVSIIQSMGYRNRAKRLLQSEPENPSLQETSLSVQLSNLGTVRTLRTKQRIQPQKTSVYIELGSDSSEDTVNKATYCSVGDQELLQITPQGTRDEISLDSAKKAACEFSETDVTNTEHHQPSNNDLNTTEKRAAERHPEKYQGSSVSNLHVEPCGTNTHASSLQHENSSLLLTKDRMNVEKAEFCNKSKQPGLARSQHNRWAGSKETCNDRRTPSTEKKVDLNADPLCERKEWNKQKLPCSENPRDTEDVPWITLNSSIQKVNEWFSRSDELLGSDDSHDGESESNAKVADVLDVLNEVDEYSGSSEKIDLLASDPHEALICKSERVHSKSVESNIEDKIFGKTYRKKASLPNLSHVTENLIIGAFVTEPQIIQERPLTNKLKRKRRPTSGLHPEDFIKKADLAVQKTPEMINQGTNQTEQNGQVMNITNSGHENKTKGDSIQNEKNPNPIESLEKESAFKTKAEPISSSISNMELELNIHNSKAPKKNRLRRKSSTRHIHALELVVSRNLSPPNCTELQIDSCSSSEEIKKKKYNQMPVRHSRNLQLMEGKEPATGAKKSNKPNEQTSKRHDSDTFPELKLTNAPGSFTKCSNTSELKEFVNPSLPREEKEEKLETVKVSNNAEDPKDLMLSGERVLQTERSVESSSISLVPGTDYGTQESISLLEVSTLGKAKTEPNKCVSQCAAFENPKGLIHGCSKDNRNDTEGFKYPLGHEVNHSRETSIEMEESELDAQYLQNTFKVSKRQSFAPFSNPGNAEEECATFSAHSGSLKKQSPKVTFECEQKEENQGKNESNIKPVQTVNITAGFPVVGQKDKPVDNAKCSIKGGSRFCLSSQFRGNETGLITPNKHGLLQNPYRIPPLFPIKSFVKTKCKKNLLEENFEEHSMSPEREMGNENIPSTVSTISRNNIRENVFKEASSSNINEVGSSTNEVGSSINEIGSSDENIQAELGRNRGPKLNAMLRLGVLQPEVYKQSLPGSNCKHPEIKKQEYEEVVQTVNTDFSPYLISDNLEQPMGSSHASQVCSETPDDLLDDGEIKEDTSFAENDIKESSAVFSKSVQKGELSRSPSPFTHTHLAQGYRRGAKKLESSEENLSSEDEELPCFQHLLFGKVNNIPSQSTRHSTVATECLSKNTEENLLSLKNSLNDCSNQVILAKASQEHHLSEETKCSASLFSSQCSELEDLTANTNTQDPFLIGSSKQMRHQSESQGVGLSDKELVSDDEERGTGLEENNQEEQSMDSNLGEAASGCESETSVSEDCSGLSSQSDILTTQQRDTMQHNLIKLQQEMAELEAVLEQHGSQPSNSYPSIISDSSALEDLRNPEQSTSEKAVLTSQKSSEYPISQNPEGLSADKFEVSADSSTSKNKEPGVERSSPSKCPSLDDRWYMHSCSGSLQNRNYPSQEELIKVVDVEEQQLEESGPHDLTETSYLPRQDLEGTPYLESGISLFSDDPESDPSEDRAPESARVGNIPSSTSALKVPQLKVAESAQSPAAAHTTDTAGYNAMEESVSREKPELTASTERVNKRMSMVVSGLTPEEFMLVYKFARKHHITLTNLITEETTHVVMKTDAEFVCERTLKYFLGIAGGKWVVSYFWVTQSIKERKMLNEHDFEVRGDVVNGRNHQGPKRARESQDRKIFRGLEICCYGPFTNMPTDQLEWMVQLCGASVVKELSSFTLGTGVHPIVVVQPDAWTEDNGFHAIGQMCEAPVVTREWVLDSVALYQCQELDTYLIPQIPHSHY
UniProt P10415: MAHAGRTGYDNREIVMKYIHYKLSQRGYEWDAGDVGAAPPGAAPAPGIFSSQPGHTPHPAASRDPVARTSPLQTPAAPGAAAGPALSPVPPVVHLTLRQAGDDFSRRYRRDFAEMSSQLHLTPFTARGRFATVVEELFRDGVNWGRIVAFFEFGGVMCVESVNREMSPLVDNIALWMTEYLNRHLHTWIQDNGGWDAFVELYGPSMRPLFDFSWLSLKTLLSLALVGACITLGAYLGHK
UniProt Q99873: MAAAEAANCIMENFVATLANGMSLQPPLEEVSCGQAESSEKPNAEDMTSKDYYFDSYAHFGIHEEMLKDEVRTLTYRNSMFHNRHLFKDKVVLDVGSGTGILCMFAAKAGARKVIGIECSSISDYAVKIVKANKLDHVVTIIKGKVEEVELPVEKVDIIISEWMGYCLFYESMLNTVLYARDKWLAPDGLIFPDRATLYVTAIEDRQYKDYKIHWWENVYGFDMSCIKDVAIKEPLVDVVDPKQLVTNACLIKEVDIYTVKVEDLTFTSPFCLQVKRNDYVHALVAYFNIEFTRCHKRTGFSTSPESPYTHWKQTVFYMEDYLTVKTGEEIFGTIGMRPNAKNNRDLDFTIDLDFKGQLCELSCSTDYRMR

Legend:
[1] = target: BRCA1 (human (endogenous in MCF7 and MDA-MB-231)) (UniProt P38398); experiment: co-IP; 1 mg total extracts of siControl MCF7 cells at times after IR (10 Gy); immunoprecipitated with anti-BRCA1 (clone 6B4); immunoblot
[2] = target: BRCA1 (human (endogenous in MCF7 and MDA-MB-231)) (UniProt P38398); experiment: co-IP; 1 mg total extracts of MCF7 cells, non-irradiated siControl cells, and siPRMT1 cells without and after IR (10 Gy); immunoprecipitated with anti-BRCA1 (clone 6B4); immunoblot
[3] = target: BRCA1 (human (endogenous in MCF7 and MDA-MB-231)) (UniProt P38398); experiment: co-IP; 1 mg cytosolic extracts of MCF7 and MDA-MB-231 cells, without and at times after IR (10 Gy); immunoprecipitated with anti-BRCA1 (clone 6B4), Protein G magnetic beads, 4 °C; immunoblot

In the case of Bcl-2 (from UniProt P10415 1-239), the binding [1] is reported as “no binding (condition: after IR (10 Gy), siControl cells)” and the binding [2] is reported as “binds”.
In the case of “PRMT1 (from UniProt Q99873 1-371) (enzyme)”, the binding [3] is reported as “binds”.
